This is an account of results in US20050222062.

The target in series [1] is GATA3 wild type (Mus musculus) (UniProt P23772). The series is described as follows: competition with a labelled probe. The settings on record: protein in a lysate after overexpression, protein details: expressed in COS cells from pME18S, label: 32P.
Series [2] deals with GATA3 delC (C finger deletion) del304-325 (Mus musculus) (UniProt P23772). As to the kind of experiment: EMSA. To be noted: protein in a lysate after overexpression; protein details: expressed in COS cells from pME18S; label: 32P. A general note: Mobility shift assays separate free from complexed probe on a gel.
Series [3] concerns the target T1, GATA3 delN (N finger deletion) del263-287 (Mus musculus) (UniProt P23772).
T1 sequence: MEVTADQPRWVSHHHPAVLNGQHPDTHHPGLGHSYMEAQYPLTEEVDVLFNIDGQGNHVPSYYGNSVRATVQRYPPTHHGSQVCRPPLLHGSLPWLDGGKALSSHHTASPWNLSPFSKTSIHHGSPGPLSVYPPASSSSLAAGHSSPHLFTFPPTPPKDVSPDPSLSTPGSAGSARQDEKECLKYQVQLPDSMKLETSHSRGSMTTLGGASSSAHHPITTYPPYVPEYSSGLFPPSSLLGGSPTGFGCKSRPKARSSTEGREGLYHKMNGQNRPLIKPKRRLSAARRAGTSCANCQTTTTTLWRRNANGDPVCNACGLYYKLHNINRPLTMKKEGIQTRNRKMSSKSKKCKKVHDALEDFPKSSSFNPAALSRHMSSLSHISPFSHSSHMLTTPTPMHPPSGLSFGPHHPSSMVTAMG
As to the kind of experiment: EMSA. To be noted: protein in a lysate after overexpression, protein details: expressed in COS cells from pME18S, label: 32P.

The target of series [4] is GATA3 wild type (Mus musculus) (UniProt P23772). As to the kind of experiment: EMSA. To be noted: protein in a lysate after overexpression, protein details: expressed in COS cells from pME18S, label: 32P.

Results from cells or extracts need not show a direct contact. For some assays here: No signal at the amounts used counts as a negative. For some assays here: Where a protein sequence is shown, tags need not be part of it. For some assays here: The comparison behind a weaker result is the experiment's own reference, which may not be listed here.

On to “GAGGCCTCATTATCTTCATTCATTTCTC (double strand) [HSS2 (CNS-1) GATA sequence]”, for which the binding result is listed as “binds more weakly” in series [1] (lower affinity than TCRα enhancer, 200-fold unlabeled HSS2 did not fully compete TCRα probe, 100-fold did not fully compete HSS2 probe); “no binding” in series [2]; “binds” in series [3] (text p49 and p60 say delN binds only HSS2); “binds” in series [4] (supershifted by anti-GATA3 antibody).

In the case of “GAGGTGTCCTCTATCTGATTGTTAGCAA (double strand) [TCRα enhancer GATA3 site]”, the binding result in series [1] (higher affinity than HSS2, 50-fold unlabeled TCRα enhancer competed TCRα probe and almost all HSS2 probe binding) is given as “binds”; in series [2] it was “no binding”; in series [3] (text p49 and p60), “no binding”; in series [4], “binds”.

On to “GTTAGAGATAGCATCGCCCCA (double strand) [IL-5 promoter GATA3 site]”, for which the binding result in series [2] is “no binding”; in series [3] (text p49 and p60), “no binding”; in series [4], “binds”.
